# Earlier results as cited in patent US9937129B2, “Materials and methods for delivering compositions to selected tissues” (The Regents of the University of California, priority 2007, dated 2018).
# At least one compound was matched to its structure with a doubt left.
# Details: intraocular; cited from earlier work
compound,measurement,value
C[C@@H]1C[C@H]2[C@@H]3CCC4=CC(=O)C=C[C@]4(C)[C@@]3(F)[C@@H](O)C[C@]2(C)[C@@]1(O)C(=O)CO [dexamethasone],Therapeutically relevant dose,> 5 ng/mL
